Laboratory results: patent US20140056907A1
No constants are given. Whether binding was seen depends on the method and setting. Some results given as binding are weak or reduced against the parent protein; the word gives no strength.

Chains of the proteins cited; added tags and fusions are not shown.
UniProt P55926: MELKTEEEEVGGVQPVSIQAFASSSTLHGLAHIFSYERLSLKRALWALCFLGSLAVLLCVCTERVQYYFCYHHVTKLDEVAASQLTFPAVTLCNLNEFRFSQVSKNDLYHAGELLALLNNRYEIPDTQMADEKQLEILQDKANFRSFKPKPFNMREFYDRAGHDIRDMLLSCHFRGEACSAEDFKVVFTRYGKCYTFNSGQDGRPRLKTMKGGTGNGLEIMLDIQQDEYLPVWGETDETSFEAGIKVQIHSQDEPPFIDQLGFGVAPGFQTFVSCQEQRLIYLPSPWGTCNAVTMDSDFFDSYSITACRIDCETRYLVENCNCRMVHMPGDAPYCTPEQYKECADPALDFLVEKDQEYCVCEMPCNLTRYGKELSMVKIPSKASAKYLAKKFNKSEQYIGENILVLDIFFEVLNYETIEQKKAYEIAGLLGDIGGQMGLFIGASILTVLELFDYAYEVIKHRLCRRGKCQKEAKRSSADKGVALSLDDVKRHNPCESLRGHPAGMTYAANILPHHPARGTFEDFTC

Experiments:
[1] = target: rat ASIC1 (rat) (UniProt P55926); experiment: FACS, differentiated ND7 cells
[2] = target: rat ASIC1 (rat) (UniProt P55926); experiment: FACS, undifferentiated ND7 cells

Row | Binder | binding [1] | binding [2]
1 | H3M7118N (antibody, V domains shown) VH: EVQLLESGGGLVQPGGSLRLSCAASGFTFRNYAMSWVRQAPGKGLEWVSAINGGGDSTYYADSVKGRFTISRDNSKNTLYLQMNSLRAEDTAVYYCAKEEGDWNYVGYGYYYYYGMDVWGQGTTVTVSS VL: DIQMTQSPSSMSASVGDRVTITCRASQGISSWLAWYQQKPGKAPKLLIYAASSLQSGVPSRFSGSGSGTDFTLTIRSLQPEDFATYYCQQANSFPYTFGQGTKLEIK | binds | binds
2 | H4H6366P (antibody, human IgG4, V domains shown) VH: EVQLVESGGDLIQPGGSLRLSCIASGFTFRGYAMSWVRQAPGEGLDWVSGISSGGGNTYYADSVKGRFTISRDNSKNTLYLQMNSLRVEDTAVYYCAKDRGGVRDFYYGLDVWGQGTTVTVSS VL: DIQMTQSPSTLSASVGDRVTITCRASQSIYSWLAWYQQKPGKAPKLLIYKASSLESGVPSRFSGSGSGTDFTLTISSLQPDDFTTYYCQQYLSYSRTFGQGTKVEIK | binds | binds
3 | H3M7102N (antibody, V domains shown) VH: EVQLLASGGGLVQPGGSLRLSCAASGFTFSSFAMSWVRQAPGKGLEWVSGISGSGGSTYYADSVKGRFTISRDNSKNTLYLQMNSLRAEDTAAYYCAKEAYKWQPWGQGIRVTVSS VL: DIQMTQSPSTLSASVGDRVSITCRASQSISSWLAWYQQKPGKAPKLLIYKASNLDSGVPSRFSGSGSGTDFTLTISSLQPDDFATYYCQQYNSYSYTFGQGTKLEIK |  | binds
4 | H3M6726N (antibody, V domains shown) VH: EVQLLESGGVLVQPGGSLRLSCAASGFNFNNYDMSWVRQAPGKGLEWVSVISASGRNTYYADSVKGRFTISRDNSKISLYLQMNSLRPEDTAVYYCAKDHLVHYYYGMDVWGQGTTVTVSS VL: DIMMTQSPLSLSVTPGEPASISCRSSQSLLHSNGYNYLDWYLQKSGQSPHLLIYLGSNRASGVPDRFSGSGSGTDFTLKISRVEAEDGGVYYCMQALQTPRTFGQGTKVEIK | binds | binds

Further lines, results first:

Row | binding [1] | binding [2] | Binder
5 |  | binds | H1M7101N (antibody, mouse IgG1, V domains shown) VH: EVQLLASGGGLVQTGGSLRLSCAASGFTFSSFAMSWVRQAPGKGLEWVSGISGSGGSTYYADSVKGRFTISRDNSKNTLYLQMNSLRAEDTAAYYCAKEAYKWQPWGQGIRVTVSS VL: DIQMTQSPSTLSASVGDRVTITCRASQSISSWLAWYQQKPGKAPNLLIYKTSNLESGVPSRFSGSGSGTEFTLTISSLQPDDFATYYCQQYNSYSYTFGQGTKLEIK
6 | binds | binds | H1M6718N (antibody, mouse IgG1, V domains shown) VH: EVQLLESGGGLVQPGGSLRLSCAASGFTFSSFAMSWVRQAPGKGLEWVSGISGSGGGTHYADSVKGRFTISRDNSKNMVYLQMNSLRAEDTAAYYCAKEAYKWQPWGQGTLVTVSS VL: DIQMTQSPSTLSASVGDRVIITCRASQRISSWLAWYQQKPGKAPNLLIYKASILESGVPSRFSGSGSGTEFTLTISSLQPDDFATYYCQQYNSYSYTFGQGTKLEIK
